Source: the supplement of paper PMC9549374
This is one part of the list. Cut-off read from the data, not from the text of the source: active = 2-fold of DMSO or more and inactive = the rest. Single values of this set are uncertain. Some low values are a fixed figure set by the source, not a measured ratio.

system: CM7/1-hgem mouse ES cell-derived cardiomyocytes; test: maximal number of mAG-hGem(1/110)-positive cardiomyocytes over 96 h, fold-change vs DMSO; higher = more cardiomyocyte cell cycle activity; conditions: 1 µM; 96 (max over 12 h time points) h

Row | Structure (SMILES) | maximal number
1 | CC(O)CN1CCN(CC(=O)[O-])CCN(CC(=O)[O-])CCN(CC(=O)[O-])CC1.[Gd+3] (stereo not drawn) | inactive: 1
2 | O=c1[nH]c2ccccc2n1CCCN1CCC(n2c(=O)[nH]c3cc(Cl)ccc32)CC1 | inactive: 1
3 | CC(C)(C#N)O[C@@H]1O[C@H](CO)[C@@H](O)[C@H](O)[C@H]1O | inactive: 1
4 | C=C[C@H]1CN2CC[C@H]1C[C@H]2[C@H](O)c1ccnc2ccccc12 | inactive: 1
5 | CC1(C)C(=O)C=C[C@]2(C)[C@H]3CC[C@@]4(C)[C@H](c5ccoc5)OC(=O)[C@H]5O[C@]54[C@]3(C)[C@H](O)C[C@@H]12 | inactive: 0.5
6 | COC(C)(C)CCC[C@H](C)C/C=C/C(C)=C/C(=O)OC(C)C | inactive: 1
7 | CC(Cc1ccc(O)cc1)NCC(O)c1cc(O)cc(O)c1 (stereo not drawn) | inactive: 1
8 | C[C@]12CCC(=O)C(O)=C1CC[C@@H]1[C@@H]2CC[C@]2(C)C(=O)CC[C@@H]12 | inactive: 1
